Where a name gives a salt, the structure may show the parent alone. This is one part of the list. The calls rarely recur for the same compound in another form.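 In K562 cells expressing nanoluciferase-fused kinases, luminescence was recorded at 4 h intervals between 2 and 18 h, normalized as percent of control with DMSO at 100% and a positive control at 0%. A significant (2 sigma) signal drop marks a time point as decreased. The authors' rule for a hit is not shown and takes in more than the number of time points.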
Key:
Assay in all cases: kinase-Nluc reporter destabilization hit call (1 = scored as downregulated) (binary); higher = compound decreases kinase abundance
Settings in all cases: K562; 2-18 h
[1] = molecular target: CDK7 (UniProt P50613)
[2] = molecular target: CDK9 (UniProt P50750)
[3] = molecular target: CHEK2 (UniProt O96017)
[4] = molecular target: CSF1R (UniProt P07333)
[5] = molecular target: CSK (UniProt P41240)
[6] = molecular target: CSNK1A1 (UniProt P48729)
[7] = molecular target: CSNK1D (UniProt P48730)
[8] = molecular target: DDR1 (UniProt Q08345)
[9] = molecular target: DYRK1B (UniProt Q9Y463)
[10] = molecular target: DYRK2 (UniProt Q92630)
[11] = molecular target: EGFR (UniProt P00533)
[12] = molecular target: EGFR_G719S (UniProt P00533)
[13] = molecular target: EGFR_G719S_T790M (UniProt P00533)
[14] = molecular target: EGFR_L718V (UniProt P00533)
[15] = molecular target: EGFR_L858R (UniProt P00533)
[16] = molecular target: EGFR_L861Q (UniProt P00533)
[17] = molecular target: EGFR_T790M (UniProt P00533)
[18] = molecular target: EPHA2 (UniProt P29317)
[19] = molecular target: ERBB3 (UniProt P21860)
[20] = molecular target: ERBB4_R711C (clone: ERBB4_mut) (UniProt Q15303)

Amino acid sequences for entries named in this document (tags omitted). A change or cut given only in a name is not applied to a line headed by its entry.
UniProt P50613: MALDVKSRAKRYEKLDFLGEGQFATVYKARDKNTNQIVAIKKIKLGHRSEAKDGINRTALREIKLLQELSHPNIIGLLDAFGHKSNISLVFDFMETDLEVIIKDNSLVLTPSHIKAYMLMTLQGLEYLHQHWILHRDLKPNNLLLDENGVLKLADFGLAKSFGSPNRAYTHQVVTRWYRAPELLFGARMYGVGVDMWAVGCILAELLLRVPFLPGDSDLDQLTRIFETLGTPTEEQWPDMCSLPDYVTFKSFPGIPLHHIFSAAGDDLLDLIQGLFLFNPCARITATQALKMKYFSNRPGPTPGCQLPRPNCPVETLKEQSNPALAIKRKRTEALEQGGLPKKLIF
UniProt P50750, whole entry: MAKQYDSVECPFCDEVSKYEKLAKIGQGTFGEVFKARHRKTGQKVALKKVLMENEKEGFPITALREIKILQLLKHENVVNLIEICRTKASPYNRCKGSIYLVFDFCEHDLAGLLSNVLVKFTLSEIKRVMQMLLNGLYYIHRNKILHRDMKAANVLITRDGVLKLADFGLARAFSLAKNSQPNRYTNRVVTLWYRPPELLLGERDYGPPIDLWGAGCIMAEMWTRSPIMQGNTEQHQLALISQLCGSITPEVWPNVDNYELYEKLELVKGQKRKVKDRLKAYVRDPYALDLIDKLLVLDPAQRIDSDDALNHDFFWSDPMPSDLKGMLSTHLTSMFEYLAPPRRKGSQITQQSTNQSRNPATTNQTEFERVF
UniProt O96017, whole entry: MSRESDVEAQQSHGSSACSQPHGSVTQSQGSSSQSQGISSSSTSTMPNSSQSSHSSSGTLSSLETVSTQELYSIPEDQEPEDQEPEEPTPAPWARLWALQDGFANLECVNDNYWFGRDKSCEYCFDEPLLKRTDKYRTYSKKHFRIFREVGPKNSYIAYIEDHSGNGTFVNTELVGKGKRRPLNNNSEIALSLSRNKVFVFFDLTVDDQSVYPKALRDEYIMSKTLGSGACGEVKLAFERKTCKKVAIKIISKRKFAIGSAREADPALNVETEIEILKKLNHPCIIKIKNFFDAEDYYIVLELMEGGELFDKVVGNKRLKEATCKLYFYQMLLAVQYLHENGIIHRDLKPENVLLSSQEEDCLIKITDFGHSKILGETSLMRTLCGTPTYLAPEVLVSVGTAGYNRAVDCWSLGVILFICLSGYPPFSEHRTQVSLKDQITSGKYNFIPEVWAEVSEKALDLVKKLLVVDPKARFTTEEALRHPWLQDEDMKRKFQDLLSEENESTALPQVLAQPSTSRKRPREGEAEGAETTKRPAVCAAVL
UniProt P48729: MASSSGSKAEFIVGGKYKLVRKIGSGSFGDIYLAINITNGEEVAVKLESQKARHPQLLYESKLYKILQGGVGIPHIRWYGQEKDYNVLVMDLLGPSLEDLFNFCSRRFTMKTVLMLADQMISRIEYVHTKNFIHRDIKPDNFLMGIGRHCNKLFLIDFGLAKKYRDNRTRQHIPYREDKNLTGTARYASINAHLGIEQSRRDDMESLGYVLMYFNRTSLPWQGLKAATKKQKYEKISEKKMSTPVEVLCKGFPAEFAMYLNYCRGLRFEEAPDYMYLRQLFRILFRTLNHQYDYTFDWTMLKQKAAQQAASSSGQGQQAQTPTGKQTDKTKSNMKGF
UniProt P48730: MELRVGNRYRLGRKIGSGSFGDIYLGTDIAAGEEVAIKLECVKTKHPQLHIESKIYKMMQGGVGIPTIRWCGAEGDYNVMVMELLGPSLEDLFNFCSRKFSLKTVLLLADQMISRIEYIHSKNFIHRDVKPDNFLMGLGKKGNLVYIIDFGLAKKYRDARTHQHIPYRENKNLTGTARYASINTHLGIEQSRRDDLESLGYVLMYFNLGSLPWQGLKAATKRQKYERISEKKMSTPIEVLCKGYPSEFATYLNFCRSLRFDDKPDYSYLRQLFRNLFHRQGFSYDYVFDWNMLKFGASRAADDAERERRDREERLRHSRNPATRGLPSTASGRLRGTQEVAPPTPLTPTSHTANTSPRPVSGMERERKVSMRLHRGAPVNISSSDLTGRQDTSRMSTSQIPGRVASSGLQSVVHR
UniProt Q08345: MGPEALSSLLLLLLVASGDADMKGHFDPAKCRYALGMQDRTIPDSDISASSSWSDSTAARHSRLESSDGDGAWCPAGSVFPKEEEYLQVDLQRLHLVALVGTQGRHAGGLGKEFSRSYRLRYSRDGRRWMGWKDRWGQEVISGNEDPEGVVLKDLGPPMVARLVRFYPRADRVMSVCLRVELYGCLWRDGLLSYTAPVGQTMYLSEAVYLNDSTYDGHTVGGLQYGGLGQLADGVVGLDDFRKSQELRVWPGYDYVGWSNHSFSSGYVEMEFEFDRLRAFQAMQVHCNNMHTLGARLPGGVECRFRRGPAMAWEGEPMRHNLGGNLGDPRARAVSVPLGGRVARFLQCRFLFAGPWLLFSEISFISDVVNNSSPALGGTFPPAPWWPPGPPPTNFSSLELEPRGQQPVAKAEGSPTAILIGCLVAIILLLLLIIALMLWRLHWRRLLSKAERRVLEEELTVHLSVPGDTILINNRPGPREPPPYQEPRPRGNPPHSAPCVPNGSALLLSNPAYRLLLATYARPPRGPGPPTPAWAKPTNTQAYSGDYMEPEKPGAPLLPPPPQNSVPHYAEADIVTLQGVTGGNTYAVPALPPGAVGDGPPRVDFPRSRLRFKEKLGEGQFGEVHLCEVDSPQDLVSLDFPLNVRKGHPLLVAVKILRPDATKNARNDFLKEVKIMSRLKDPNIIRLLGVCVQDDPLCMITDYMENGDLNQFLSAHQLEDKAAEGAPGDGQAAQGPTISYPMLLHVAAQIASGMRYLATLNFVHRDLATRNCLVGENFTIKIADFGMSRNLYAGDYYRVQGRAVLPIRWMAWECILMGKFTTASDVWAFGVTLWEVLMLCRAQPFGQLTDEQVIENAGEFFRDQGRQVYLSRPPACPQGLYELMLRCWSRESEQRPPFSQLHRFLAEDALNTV
UniProt Q9Y463, whole entry, looked up: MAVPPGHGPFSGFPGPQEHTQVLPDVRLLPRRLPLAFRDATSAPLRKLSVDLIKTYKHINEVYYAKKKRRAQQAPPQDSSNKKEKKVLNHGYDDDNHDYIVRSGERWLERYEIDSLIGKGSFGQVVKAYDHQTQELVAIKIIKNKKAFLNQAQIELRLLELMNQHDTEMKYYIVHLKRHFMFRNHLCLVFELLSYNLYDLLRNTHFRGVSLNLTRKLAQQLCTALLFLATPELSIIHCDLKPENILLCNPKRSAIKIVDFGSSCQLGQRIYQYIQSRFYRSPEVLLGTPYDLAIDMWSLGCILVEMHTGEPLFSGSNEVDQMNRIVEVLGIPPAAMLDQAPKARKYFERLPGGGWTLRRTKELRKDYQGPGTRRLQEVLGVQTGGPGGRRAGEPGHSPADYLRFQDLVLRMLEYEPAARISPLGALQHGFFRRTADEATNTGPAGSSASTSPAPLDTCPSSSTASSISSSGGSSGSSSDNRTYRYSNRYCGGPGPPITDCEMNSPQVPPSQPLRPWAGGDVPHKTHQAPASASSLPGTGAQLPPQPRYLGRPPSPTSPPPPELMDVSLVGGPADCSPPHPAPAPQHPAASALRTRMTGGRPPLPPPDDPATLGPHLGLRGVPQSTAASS
UniProt Q92630: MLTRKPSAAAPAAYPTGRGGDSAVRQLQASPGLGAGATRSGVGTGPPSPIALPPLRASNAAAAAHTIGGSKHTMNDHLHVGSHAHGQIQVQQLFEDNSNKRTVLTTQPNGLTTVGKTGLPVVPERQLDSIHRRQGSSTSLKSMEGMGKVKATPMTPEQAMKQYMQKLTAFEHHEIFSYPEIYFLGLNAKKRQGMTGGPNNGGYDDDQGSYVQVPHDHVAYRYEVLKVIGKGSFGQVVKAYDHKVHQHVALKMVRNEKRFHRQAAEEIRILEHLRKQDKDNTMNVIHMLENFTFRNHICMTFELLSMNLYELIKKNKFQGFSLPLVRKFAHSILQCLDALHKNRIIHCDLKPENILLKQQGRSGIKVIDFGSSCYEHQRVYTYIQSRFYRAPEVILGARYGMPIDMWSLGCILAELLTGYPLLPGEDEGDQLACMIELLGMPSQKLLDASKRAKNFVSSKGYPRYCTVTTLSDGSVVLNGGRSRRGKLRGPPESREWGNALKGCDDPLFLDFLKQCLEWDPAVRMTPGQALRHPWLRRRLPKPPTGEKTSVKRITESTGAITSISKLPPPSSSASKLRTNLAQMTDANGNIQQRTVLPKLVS
UniProt P29317, whole entry: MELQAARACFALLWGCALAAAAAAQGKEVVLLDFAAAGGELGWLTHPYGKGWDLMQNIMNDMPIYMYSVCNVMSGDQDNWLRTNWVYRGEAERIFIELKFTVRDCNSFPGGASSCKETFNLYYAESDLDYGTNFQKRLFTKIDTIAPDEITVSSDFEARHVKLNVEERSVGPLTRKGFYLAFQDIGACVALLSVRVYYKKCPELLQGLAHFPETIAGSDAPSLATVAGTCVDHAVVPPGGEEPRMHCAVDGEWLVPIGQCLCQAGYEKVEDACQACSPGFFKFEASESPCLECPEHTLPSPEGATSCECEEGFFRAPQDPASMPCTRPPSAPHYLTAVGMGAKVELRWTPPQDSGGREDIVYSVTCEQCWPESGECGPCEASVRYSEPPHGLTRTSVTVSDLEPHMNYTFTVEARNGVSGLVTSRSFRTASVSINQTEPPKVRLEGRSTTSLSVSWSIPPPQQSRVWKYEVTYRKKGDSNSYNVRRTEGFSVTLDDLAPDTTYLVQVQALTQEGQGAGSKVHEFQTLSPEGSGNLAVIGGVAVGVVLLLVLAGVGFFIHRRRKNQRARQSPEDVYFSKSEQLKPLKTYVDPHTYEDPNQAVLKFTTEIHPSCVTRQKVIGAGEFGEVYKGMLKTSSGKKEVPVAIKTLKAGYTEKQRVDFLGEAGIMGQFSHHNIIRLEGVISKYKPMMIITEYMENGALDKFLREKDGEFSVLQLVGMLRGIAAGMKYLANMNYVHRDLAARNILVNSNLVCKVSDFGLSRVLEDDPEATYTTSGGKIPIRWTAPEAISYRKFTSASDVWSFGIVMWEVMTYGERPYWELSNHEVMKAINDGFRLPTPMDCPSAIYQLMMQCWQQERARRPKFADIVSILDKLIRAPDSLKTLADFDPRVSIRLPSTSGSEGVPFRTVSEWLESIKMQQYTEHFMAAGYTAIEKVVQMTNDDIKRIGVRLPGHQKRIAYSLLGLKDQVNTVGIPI
UniProt P21860, whole entry: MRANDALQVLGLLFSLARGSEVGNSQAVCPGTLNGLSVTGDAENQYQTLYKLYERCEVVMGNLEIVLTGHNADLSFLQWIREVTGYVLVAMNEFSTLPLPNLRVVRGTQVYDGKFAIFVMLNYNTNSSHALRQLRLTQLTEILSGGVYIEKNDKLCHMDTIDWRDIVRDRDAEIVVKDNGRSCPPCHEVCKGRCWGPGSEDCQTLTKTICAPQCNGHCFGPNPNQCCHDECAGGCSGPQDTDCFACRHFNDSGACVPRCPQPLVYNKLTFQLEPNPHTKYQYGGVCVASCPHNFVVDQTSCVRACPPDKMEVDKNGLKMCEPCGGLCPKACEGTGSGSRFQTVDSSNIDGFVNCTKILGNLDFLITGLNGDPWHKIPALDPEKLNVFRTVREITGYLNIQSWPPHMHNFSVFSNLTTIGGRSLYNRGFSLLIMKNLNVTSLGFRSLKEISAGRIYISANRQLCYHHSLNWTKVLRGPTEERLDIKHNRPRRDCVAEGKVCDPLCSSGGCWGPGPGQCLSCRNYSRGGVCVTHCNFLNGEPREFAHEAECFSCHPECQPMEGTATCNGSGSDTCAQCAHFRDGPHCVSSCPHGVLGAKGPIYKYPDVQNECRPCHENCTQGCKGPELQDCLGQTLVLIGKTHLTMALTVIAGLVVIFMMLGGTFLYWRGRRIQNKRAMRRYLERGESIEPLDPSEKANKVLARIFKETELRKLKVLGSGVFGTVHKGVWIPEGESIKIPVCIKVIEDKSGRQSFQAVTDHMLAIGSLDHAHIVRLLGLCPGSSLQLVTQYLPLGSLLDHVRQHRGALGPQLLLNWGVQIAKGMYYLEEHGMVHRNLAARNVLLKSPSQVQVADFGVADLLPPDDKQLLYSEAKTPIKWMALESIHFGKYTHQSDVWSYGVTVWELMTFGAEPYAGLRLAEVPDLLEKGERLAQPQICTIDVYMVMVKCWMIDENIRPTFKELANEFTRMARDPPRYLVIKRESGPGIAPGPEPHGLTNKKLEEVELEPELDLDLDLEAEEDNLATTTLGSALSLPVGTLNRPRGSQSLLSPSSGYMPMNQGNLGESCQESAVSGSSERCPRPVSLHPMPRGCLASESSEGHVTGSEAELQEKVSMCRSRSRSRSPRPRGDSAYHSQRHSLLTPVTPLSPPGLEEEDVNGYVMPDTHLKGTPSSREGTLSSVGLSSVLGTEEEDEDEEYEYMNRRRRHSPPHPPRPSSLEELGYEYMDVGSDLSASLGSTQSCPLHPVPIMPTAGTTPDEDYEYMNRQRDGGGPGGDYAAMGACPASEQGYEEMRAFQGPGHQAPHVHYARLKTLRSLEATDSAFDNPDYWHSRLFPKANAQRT

Measured: kinase-Nluc reporter destabilization hit call

Oc1ccc(Nc2nc(-c3ccc(Cl)cc3)cs2)cc1 (10 µM)
inactive: [1] 0 | [2] 0 | [3] 0 | [4] 0 | [5] 0 | [6] 0 | [7] 0 | [8] 0 | [9] 0 | [10] 0 | [11] 0 | [12] 0 | [13] 0 | [14] 0 | [15] 0 | [16] 0 | [17] 0 | [18] 0 | [19] 0 | [20] 0

CC(=O)NC1CC(n2cnc(NC(=O)Cc3ccc4ccccc4c3)c2)C1 (stereo not given) (10 µM)
inactive: [1] 0 | [2] 0 | [3] 0 | [4] 0 | [5] 0 | [6] 0 | [7] 0 | [8] 0 | [9] 0 | [10] 0 | [11] 0 | [12] 0 | [13] 0 | [14] 0 | [15] 0 | [16] 0 | [17] 0 | [18] 0 | [19] 0 | [20] 0

S=C(SSC(=S)N1CCOCC1)N1CCOCC1 (10 µM)
inactive: [1] 0 | [2] 0 | [3] 0 | [4] 0 | [5] 0 | [6] 0 | [7] 0 | [8] 0 | [9] 0 | [10] 0 | [11] 0 | [12] 0 | [13] 0 | [14] 0 | [15] 0 | [16] 0 | [17] 0 | [18] 0 | [19] 0 | [20] 0

NCCNS(=O)(=O)c1cccc2c(Cl)cccc12 [A-3 (hydrochloride)] (10 µM)
inactive: [1] 0 | [2] 0 | [3] 0 | [4] 0 | [5] 0 | [6] 0 | [7] 0 | [8] 0 | [9] 0 | [10] 0 | [11] 0 | [12] 0 | [13] 0 | [14] 0 | [15] 0 | [16] 0 | [17] 0 | [18] 0 | [19] 0 | [20] 0

CNC(=O)c1c(F)cccc1Nc1nc(Nc2cc3c(cc2OC)CCN3C(=O)CN(C)C)nc2[nH]ccc12 (10 µM)
inactive: [1] 0 | [2] 0 | [3] 0 | [4] 0 | [5] 0 | [6] 0 | [7] 0 | [8] 0 | [9] 0 | [10] 0 | [11] 0 | [12] 0 | [13] 0 | [14] 0 | [15] 0 | [16] 0 | [17] 0 | [18] 0 | [19] 0 | [20] 0

CN(C)CCCOc1ccc(-c2ccc3ncc4c(c3c2)n(C2CCOCC2)c(=O)n4C)cn1 (2 µM)
inactive: [1] 0 | [2] 0 | [3] 0 | [4] 0 | [5] 0 | [6] 0 | [7] 0 | [8] 0 | [9] 0 | [10] 0 | [11] 0 | [12] 0 | [13] 0 | [14] 0 | [15] 0 | [16] 0 | [17] 0 | [18] 0 | [19] 0 | [20] 0

c1ccc(-c2[nH]ncc2-c2ccnc3ccccc23)nc1 (10 µM)
inactive: [1] 0 | [2] 0 | [3] 0 | [4] 0 | [5] 0 | [6] 0 | [7] 0 | [8] 0 | [9] 0 | [10] 0 | [11] 0 | [12] 0 | [13] 0 | [14] 0 | [15] 0 | [16] 0 | [17] 0 | [18] 0 | [19] 0 | [20] 0

Cn1nccc1Nc1nccc(-c2ccn([C@H](CO)c3ccc(Cl)c(F)c3)c(=O)c2)n1 [Ravoxertinib hydrochloride] (10 µM)
inactive: [1] 0 | [2] 0 | [3] 0 | [4] 0 | [5] 0 | [6] 0 | [7] 0 | [8] 0 | [9] 0 | [10] 0 | [11] 0 | [12] 0 | [13] 0 | [14] 0 | [15] 0 | [16] 0 | [17] 0 | [18] 0 | [19] 0 | [20] 0

CN(C)CCSSCCNC(=O)C1CCN(C(=O)CSc2ccc(Cl)cc2)CC1 (10 µM)
inactive: [1] 0 | [2] 0 | [3] 0 | [4] 0 | [5] 0 | [6] 0 | [7] 0 | [8] 0 | [9] 0 | [10] 0 | [11] 0 | [12] 0 | [13] 0 | [14] 0 | [15] 0 | [16] 0 | [17] 0 | [18] 0 | [19] 0 | [20] 0

CC[C@@H](Oc1nc(Oc2cc(C)cc(-c3cccc(CN)c3)c2)c(F)cc1F)C(=O)O (10 µM)
inactive: [1] 0 | [2] 0 | [3] 0 | [4] 0 | [5] 0 | [6] 0 | [7] 0 | [8] 0 | [9] 0 | [10] 0 | [11] 0 | [12] 0 | [13] 0 | [14] 0 | [15] 0 | [16] 0 | [17] 0 | [18] 0 | [19] 0 | [20] 0

O=C1NC(=O)/C(=C/c2ccc3nccnc3c2)S1 (10 µM)
inactive: [1] 0 | [2] 0 | [3] 0 | [4] 0 | [5] 0 | [6] 0 | [7] 0 | [8] 0 | [9] 0 | [10] 0 | [11] 0 | [12] 0 | [13] 0 | [14] 0 | [15] 0 | [16] 0 | [17] 0 | [18] 0 | [19] 0 | [20] 0

NC(=O)c1ccc2[nH]ccc2c1 (10 µM)
inactive: [1] 0 | [2] 0 | [3] 0 | [4] 0 | [5] 0 | [6] 0 | [7] 0 | [8] 0 | [9] 0 | [10] 0 | [11] 0 | [12] 0 | [13] 0 | [14] 0 | [15] 0 | [16] 0 | [17] 0 | [18] 0 | [19] 0 | [20] 0

O=C(NCCN1CCCC1)c1cc(-c2ccc(CN3CCOCC3)cc2)nc2ccc(F)cc12 (10 µM)
inactive: [1] 0 | [2] 0 | [3] 0 | [4] 0 | [5] 0 | [6] 0 | [7] 0 | [8] 0 | [9] 0 | [10] 0 | [11] 0 | [12] 0 | [13] 0 | [14] 0 | [15] 0 | [16] 0 | [17] 0 | [18] 0 | [19] 0 | [20] 0

A draw from above in order of number of heavy atoms, smallest number first.
O=C1NC(=O)/C(=C/c2ccc3nccnc3c2)S1 (10 µM)
inactive: [1] 0 | [2] 0 | [3] 0 | [4] 0 | [5] 0 | [6] 0 | [7] 0 | [8] 0 | [9] 0 | [10] 0 | [11] 0 | [12] 0 | [13] 0 | [14] 0 | [15] 0 | [16] 0 | [17] 0 | [18] 0 | [19] 0 | [20] 0

Cn1nccc1Nc1nccc(-c2ccn([C@H](CO)c3ccc(Cl)c(F)c3)c(=O)c2)n1 [Ravoxertinib hydrochloride] (10 µM)
inactive: [1] 0 | [2] 0 | [3] 0 | [4] 0 | [5] 0 | [6] 0 | [7] 0 | [8] 0 | [9] 0 | [10] 0 | [11] 0 | [12] 0 | [13] 0 | [14] 0 | [15] 0 | [16] 0 | [17] 0 | [18] 0 | [19] 0 | [20] 0

CN(C)CCCOc1ccc(-c2ccc3ncc4c(c3c2)n(C2CCOCC2)c(=O)n4C)cn1 (2 µM)
inactive: [1] 0 | [2] 0 | [3] 0 | [4] 0 | [5] 0 | [6] 0 | [7] 0 | [8] 0 | [9] 0 | [10] 0 | [11] 0 | [12] 0 | [13] 0 | [14] 0 | [15] 0 | [16] 0 | [17] 0 | [18] 0 | [19] 0 | [20] 0

Next results follow.

CC1CCc2c(cc(Br)c(F)c2Br)N1C=O (stereo not given) (10 µM)
inactive: [1] 0 | [2] 0 | [3] 0 | [4] 0 | [5] 0 | [6] 0 | [7] 0 | [8] 0 | [9] 0 | [10] 0 | [11] 0 | [12] 0 | [13] 0 | [14] 0 | [15] 0 | [16] 0 | [17] 0 | [18] 0 | [19] 0 | [20] 0

CC1=C(C(=O)O)N2C(=O)[C@@H](NC(=O)[C@H](N)C3=CCC=CC3)[C@H]2SC1 [Cephradine] (10 µM)
inactive: [1] 0 | [2] 0 | [3] 0 | [4] 0 | [5] 0 | [6] 0 | [7] 0 | [8] 0 | [9] 0 | [10] 0 | [11] 0 | [12] 0 | [13] 0 | [14] 0 | [15] 0 | [16] 0 | [17] 0 | [18] 0 | [19] 0 | [20] 0

CCc1cc2c(cc1N1CCC(N3CCOCC3)CC1)C(C)(C)c1[nH]c3cc(C#N)ccc3c1C2=O [Alectinib (Hydrochloride)] (2 µM)
inactive: [1] 0 | [2] 0 | [3] 0 | [4] 0 | [5] 0 | [6] 0 | [7] 0 | [8] 0 | [9] 0 | [10] 0 | [11] 0 | [12] 0 | [13] 0 | [14] 0 | [15] 0 | [16] 0 | [17] 0 | [18] 0 | [19] 0 | [20] 0

COc1cc2nccc(Oc3ccc(NC(=O)NC4CC4)c(Cl)c3)c2cc1C(N)=O [Lenvatinib (mesylate)] (10 µM)
inactive: [1] 0 | [2] 0 | [3] 0 | [4] 0 | [5] 0 | [6] 0 | [7] 0 | [8] 0 | [9] 0 | [10] 0 | [11] 0 | [12] 0 | [13] 0 | [14] 0 | [15] 0 | [16] 0 | [17] 0 | [18] 0 | [19] 0 | [20] 0

Cc1cc(Nc2ncnc3ccc(NC4=NC(C)(C)CO4)cc23)ccc1Oc1ccn2ncnc2c1 [Tucatinib] (2.5 µM)
inactive: [1] 0 | [2] 0 | [3] 0 | [4] 0 | [5] 0 | [6] 0 | [7] 0 | [8] 0 | [9] 0 | [10] 0 | [11] 0 | [12] 0 | [13] 0 | [14] 0 | [15] 0 | [16] 0 | [17] 0 | [18] 0 | [19] 0 | [20] 0
